The text below walks through data of paper PMC10158027.

Amino acid sequences for entries named in this document (tags omitted).
UniProt Q86U44: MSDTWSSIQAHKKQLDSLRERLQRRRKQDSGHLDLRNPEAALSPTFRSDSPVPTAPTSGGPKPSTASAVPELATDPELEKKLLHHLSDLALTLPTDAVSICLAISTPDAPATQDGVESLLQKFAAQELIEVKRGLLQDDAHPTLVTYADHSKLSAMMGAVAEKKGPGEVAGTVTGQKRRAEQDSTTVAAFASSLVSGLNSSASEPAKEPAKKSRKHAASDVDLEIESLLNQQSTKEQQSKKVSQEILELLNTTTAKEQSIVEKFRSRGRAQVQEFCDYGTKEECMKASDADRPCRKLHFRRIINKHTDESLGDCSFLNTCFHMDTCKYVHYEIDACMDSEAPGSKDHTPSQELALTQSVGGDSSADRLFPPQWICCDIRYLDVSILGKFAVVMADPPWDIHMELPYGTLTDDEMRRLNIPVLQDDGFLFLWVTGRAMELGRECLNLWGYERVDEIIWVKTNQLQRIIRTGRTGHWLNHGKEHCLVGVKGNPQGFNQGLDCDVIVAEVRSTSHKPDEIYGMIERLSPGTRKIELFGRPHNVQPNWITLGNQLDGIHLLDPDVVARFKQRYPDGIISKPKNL

No constants are given. Whether binding was seen depends on the method and setting. Binding seen in cells or lysates may run through a third protein. Here binding means that the protein was enriched with, or labelled near, the bait; the list need not be complete.

The target of this assay is T1, USP13 (human (endogenous in OS cells)) (UniProt Q92995).
T1 sequence: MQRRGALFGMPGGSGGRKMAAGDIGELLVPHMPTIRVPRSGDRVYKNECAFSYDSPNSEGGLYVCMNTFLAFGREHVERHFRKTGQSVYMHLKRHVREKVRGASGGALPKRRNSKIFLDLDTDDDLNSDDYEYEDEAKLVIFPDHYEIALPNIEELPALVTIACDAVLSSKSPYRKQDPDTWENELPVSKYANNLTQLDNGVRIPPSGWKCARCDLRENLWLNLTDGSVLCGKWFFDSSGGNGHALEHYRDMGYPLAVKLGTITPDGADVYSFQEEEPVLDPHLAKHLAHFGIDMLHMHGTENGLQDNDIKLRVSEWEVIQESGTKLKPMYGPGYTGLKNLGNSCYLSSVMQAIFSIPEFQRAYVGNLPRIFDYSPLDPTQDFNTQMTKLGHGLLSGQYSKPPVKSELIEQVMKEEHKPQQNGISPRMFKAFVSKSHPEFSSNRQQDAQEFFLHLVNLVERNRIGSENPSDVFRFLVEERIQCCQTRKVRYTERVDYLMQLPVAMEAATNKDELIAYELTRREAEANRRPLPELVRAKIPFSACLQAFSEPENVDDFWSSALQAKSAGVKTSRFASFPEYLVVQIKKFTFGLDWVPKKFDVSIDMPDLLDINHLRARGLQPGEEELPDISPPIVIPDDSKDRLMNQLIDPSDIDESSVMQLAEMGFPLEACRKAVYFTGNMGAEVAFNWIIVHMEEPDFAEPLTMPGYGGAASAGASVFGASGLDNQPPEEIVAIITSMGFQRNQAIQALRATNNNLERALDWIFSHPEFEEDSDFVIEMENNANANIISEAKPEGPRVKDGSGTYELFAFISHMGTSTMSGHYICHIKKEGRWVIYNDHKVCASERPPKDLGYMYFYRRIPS
Description: affinity purification with mass spectrometry; IP coupled with MS (IP/MS) to find proteins that bind USP13; cells and bait form not told in the main text.

Consider “METTL3 (from UniProt Q86U44 1-580) (enzyme)”, for which the binding entry is on record as “binds”.
